Source: PubChem BioAssay AID1224830 (NIAID, 2016)
In all, the deposit lists about 18,000 reagents; below is an unselected part. Over the whole deposit, about 2,900 (16%) are marked active. 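Calls are made per well; low scores hint the gene aids the LPS response, high scores that it dampens it.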 Entries without a mark were called inactive. Repeated entries: four replicate wells of each siRNA pool.

- Purpose: 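Genes whose knock-down alters the TNF-alpha reporter response to LPS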 (primary screen)
- Cell system: human THP-1 monocytic leukaemia cells, TNF dual-luciferase reporter clone, PMA-differentiated to macrophage-like cells
- Reagents: siRNA pool against human genes, 50 nM
- Time to read-out: LPS for 4 h, given about 3 days after siRNA transfection
- Conditions: bacterial LPS (TLR4 ligand), 10 ng/ml
- Measured: 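Ratio of firefly to renilla light, scaled to the plate median and expressed as a robust z-score per replicate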
- Scale: TNF reporter robust z-score: higher = stronger TNF reporter response to LPS
- Rule for the call: 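Each well counts as active if its z-score is over 2.8 or under -1.5; controls are left without a call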

Target gene	PubChem SID	TNF reporter robust z-score
GNMT (glycine N-methyltransferase)	SID315455980	-0.82
GNMT (glycine N-methyltransferase)	SID315455980	-0.14
GNMT (glycine N-methyltransferase)	SID315455980	-0.71
GNMT (glycine N-methyltransferase)	SID315455980	-0.26
TAAR8 (trace amine associated receptor 8)	SID315460023	0.41
TAAR8 (trace amine associated receptor 8)	SID315460023	0.51
TAAR8 (trace amine associated receptor 8)	SID315460023	0.26
TAAR8 (trace amine associated receptor 8)	SID315460023	0.73
ESPN (espin)	SID315460068	-0.13
ESPN (espin)	SID315460068	-0.11
ESPN (espin)	SID315460068	-0.36
ESPN (espin)	SID315460068	0.31
MMP9 (matrix metallopeptidase 9)	SID315450003	-0.68
MMP9 (matrix metallopeptidase 9)	SID315450003	-0.11
MMP9 (matrix metallopeptidase 9)	SID315450003	0.84
MMP9 (matrix metallopeptidase 9)	SID315450003	0.54
DCAF16 (DDB1 and CUL4 associated factor 16)	SID315457229	-0.98
DCAF16 (DDB1 and CUL4 associated factor 16)	SID315457229	-0.63
DCAF16 (DDB1 and CUL4 associated factor 16)	SID315457229	-1.66 (active)
DCAF16 (DDB1 and CUL4 associated factor 16)	SID315457229	-1.52 (active)
NOTCH4 (notch receptor 4)	SID315450282	-0.85
NOTCH4 (notch receptor 4)	SID315450282	-0.87
NOTCH4 (notch receptor 4)	SID315450282	-1.23
NOTCH4 (notch receptor 4)	SID315450282	0.09
TAS2R43 (taste 2 receptor member 43)	SID315463581	1.08
TAS2R43 (taste 2 receptor member 43)	SID315463581	0.75
TAS2R43 (taste 2 receptor member 43)	SID315463581	0.86
TAS2R43 (taste 2 receptor member 43)	SID315463581	1.64
FKBP6 (FKBP prolyl isomerase family member 6 (inactive))	SID315452583	1.02
FKBP6 (FKBP prolyl isomerase family member 6 (inactive))	SID315452583	0.86
FKBP6 (FKBP prolyl isomerase family member 6 (inactive))	SID315452583	0.87
FKBP6 (FKBP prolyl isomerase family member 6 (inactive))	SID315452583	0.85
ELAVL2 (ELAV like RNA binding protein 2)	SID315448485	-0.23
ELAVL2 (ELAV like RNA binding protein 2)	SID315448485	0.63
ELAVL2 (ELAV like RNA binding protein 2)	SID315448485	3.35 (active)
ELAVL2 (ELAV like RNA binding protein 2)	SID315448485	0.94
KCNH8 (potassium voltage-gated channel subfamily H member 8)	SID315461885	1.2
KCNH8 (potassium voltage-gated channel subfamily H member 8)	SID315461885	5.58 (active)
KCNH8 (potassium voltage-gated channel subfamily H member 8)	SID315461885	2.84 (active)
KCNH8 (potassium voltage-gated channel subfamily H member 8)	SID315461885	2.54
CCNB1IP1 (cyclin B1 interacting protein 1)	SID315458597	1.1
CCNB1IP1 (cyclin B1 interacting protein 1)	SID315458597	0.3
CCNB1IP1 (cyclin B1 interacting protein 1)	SID315458597	0.23
CCNB1IP1 (cyclin B1 interacting protein 1)	SID315458597	2.39
GALNT1 (polypeptide N-acetylgalactosaminyltransferase 1)	SID315448828	-0.07
GALNT1 (polypeptide N-acetylgalactosaminyltransferase 1)	SID315448828	0.31
GALNT1 (polypeptide N-acetylgalactosaminyltransferase 1)	SID315448828	-0.49
GALNT1 (polypeptide N-acetylgalactosaminyltransferase 1)	SID315448828	-0.46
MRPL30 (mitochondrial ribosomal protein L30)	SID315456592	-0.63
MRPL30 (mitochondrial ribosomal protein L30)	SID315456592	-0.85
MRPL30 (mitochondrial ribosomal protein L30)	SID315456592	-0.82
MRPL30 (mitochondrial ribosomal protein L30)	SID315456592	-0.62
EHF (ETS homologous factor)	SID315455770	0.67
EHF (ETS homologous factor)	SID315455770	0.79
EHF (ETS homologous factor)	SID315455770	0.63
GABRA5 (gamma-aminobutyric acid type A receptor subunit alpha5)	SID315448800	-0.45
GABRA5 (gamma-aminobutyric acid type A receptor subunit alpha5)	SID315448800	-1.8 (active)
GABRA5 (gamma-aminobutyric acid type A receptor subunit alpha5)	SID315448800	-0.71
GABRA5 (gamma-aminobutyric acid type A receptor subunit alpha5)	SID315448800	-1.21
ZMAT5 (zinc finger matrin-type 5)	SID315457958	-0.24
ZMAT5 (zinc finger matrin-type 5)	SID315457958	-0.64
ZMAT5 (zinc finger matrin-type 5)	SID315457958	-0.45
ZMAT5 (zinc finger matrin-type 5)	SID315457958	0.85
CMTM2 (CKLF like MARVEL transmembrane domain containing 2)	SID315462272	-0.79
CMTM2 (CKLF like MARVEL transmembrane domain containing 2)	SID315462272	0.19
CMTM2 (CKLF like MARVEL transmembrane domain containing 2)	SID315462272	-0.06
CMTM2 (CKLF like MARVEL transmembrane domain containing 2)	SID315462272	0.1
UPK1A (uroplakin 1A)	SID315454558	-0.17
UPK1A (uroplakin 1A)	SID315454558	3.66 (active)
UPK1A (uroplakin 1A)	SID315454558	0.88
UPK1A (uroplakin 1A)	SID315454558	1.12
RAPGEFL1 (Rap guanine nucleotide exchange factor like 1)	SID315456546	0.76
RAPGEFL1 (Rap guanine nucleotide exchange factor like 1)	SID315456546	0.63
RAPGEFL1 (Rap guanine nucleotide exchange factor like 1)	SID315456546	1.36
RAPGEFL1 (Rap guanine nucleotide exchange factor like 1)	SID315456546	0.68
CXCR1 (C-X-C motif chemokine receptor 1)	SID315449471	1.21
CXCR1 (C-X-C motif chemokine receptor 1)	SID315449471	1.37
CXCR1 (C-X-C motif chemokine receptor 1)	SID315449471	2.21
CXCR1 (C-X-C motif chemokine receptor 1)	SID315449471	2.1
NKAPD1 (NKAP domain containing 1)	SID315457505	-0.05
NKAPD1 (NKAP domain containing 1)	SID315457505	0.9
NKAPD1 (NKAP domain containing 1)	SID315457505	-0.46
NKAPD1 (NKAP domain containing 1)	SID315457505	0.67
BLMH (bleomycin hydrolase)	SID315447553	-0.98
BLMH (bleomycin hydrolase)	SID315447553	2.65
BLMH (bleomycin hydrolase)	SID315447553	3 (active)
BLMH (bleomycin hydrolase)	SID315447553	-0.93
WDR83OS (WD repeat domain 83 opposite strand)	SID315456694	1.79
WDR83OS (WD repeat domain 83 opposite strand)	SID315456694	1.94
WDR83OS (WD repeat domain 83 opposite strand)	SID315456694	1.43
WDR83OS (WD repeat domain 83 opposite strand)	SID315456694	0.87
BRCA1 (BRCA1 DNA repair associated)	SID315447582	1.63
BRCA1 (BRCA1 DNA repair associated)	SID315447582	1.58
BRCA1 (BRCA1 DNA repair associated)	SID315447582	-0.36
BRCA1 (BRCA1 DNA repair associated)	SID315447582	0.85
DNAH12 (dynein axonemal heavy chain 12)	SID315464367	-0.32
DNAH12 (dynein axonemal heavy chain 12)	SID315464367	0.2
DNAH12 (dynein axonemal heavy chain 12)	SID315464367	0.39
DNAH12 (dynein axonemal heavy chain 12)	SID315464367	0.26
RADIL (Rap associating with DIL domain)	SID315457781	-0.61
RADIL (Rap associating with DIL domain)	SID315457781	2.15
RADIL (Rap associating with DIL domain)	SID315457781	-0.53
RADIL (Rap associating with DIL domain)	SID315457781	0.85
DNAJC30 (DnaJ heat shock protein family (Hsp40) member C30)	SID315460290	0.48
DNAJC30 (DnaJ heat shock protein family (Hsp40) member C30)	SID315460290	0.06
DNAJC30 (DnaJ heat shock protein family (Hsp40) member C30)	SID315460290	-0.16
DNAJC30 (DnaJ heat shock protein family (Hsp40) member C30)	SID315460290	0.9
ARB2A (ARB2 cotranscriptional regulator A)	SID315460151	0.02
ARB2A (ARB2 cotranscriptional regulator A)	SID315460151	0.2
ARB2A (ARB2 cotranscriptional regulator A)	SID315460151	0.12
ARB2A (ARB2 cotranscriptional regulator A)	SID315460151	0.34

Laid out differently: results already given.
DCAF16 (DDB1 and CUL4 associated factor 16) [SID315457229]: TNF reporter robust z-score = -1.66 (active)
DCAF16 (DDB1 and CUL4 associated factor 16) [SID315457229]: TNF reporter robust z-score = -1.52 (active)
NOTCH4 (notch receptor 4) [SID315450282]: TNF reporter robust z-score = -0.85
NOTCH4 (notch receptor 4) [SID315450282]: TNF reporter robust z-score = -0.87
NOTCH4 (notch receptor 4) [SID315450282]: TNF reporter robust z-score = -1.23
NOTCH4 (notch receptor 4) [SID315450282]: TNF reporter robust z-score = 0.09
TAS2R43 (taste 2 receptor member 43) [SID315463581]: TNF reporter robust z-score = 1.08
TAS2R43 (taste 2 receptor member 43) [SID315463581]: TNF reporter robust z-score = 0.75
TAS2R43 (taste 2 receptor member 43) [SID315463581]: TNF reporter robust z-score = 0.86
TAS2R43 (taste 2 receptor member 43) [SID315463581]: TNF reporter robust z-score = 1.64
